Reference: patent US6875844B1, “Peptide compounds derived from a shifted ORF of the iCE gene” (Institut Gustave Roussy, priority 1999, dated 2005)
Results are given in words; binding and its absence hold for the method and conditions named. Some results given as binding are weak or reduced against the parent protein; the word gives no strength.

Experiments:
[1] = target: HLA-B*0702 on transfected T2 cells (human) (UniProt P01889); experiment: T2 cells transfected with HLA-B*0702
[2] = target: HLA-B*0702 on transfected T2 cells (human) (UniProt P01889); experiment: HLA-B7 expression on T2 cells transfected with HLA-B*0702, flow cytometry with anti-HLA-B7 mAb HB59
[3] = target: HLA-B*0702 on transfected T2 cells (human) (UniProt P01889); experiment: immunofluorescence binding assay on transfected T2 cells

Measured: binding

B1: iCE peptide … (nonamer encoded by the +1 alternative ORF of the intestinal carboxylesterase gene) (peptide)
peptide: SPRWWPTCL
binds: [1] | [2] | [3]
